Source: PMC3532225

What was measured:
STAT1 E705Q-HA = STAT1 E705Q-HA (UniProt P42224); assay: pull-down (oligoprecipitation, immunoblot); details: IFN-g + osmotic shock, SUMO-1 co-expressed; biotin; Lysate diluted 4-fold: 100 mM Tris-HCl pH 7.5, ~75 mM NaCl, 0.2 mM EDTA, 1 mM DTT, 1 mM NaF, Triton X-100, glycerol; 2 h binding (temperature not stated for this step); protein in a lysate after overexpression; protein details: HA; label: biotin
STAT1 WT-HA = STAT1 WT-HA (UniProt P42224); assay: pull-down (oligoprecipitation, immunoblot); details: biotin, Lysate diluted 4-fold: 100 mM Tris-HCl pH 7.5, ~75 mM NaCl, 0.2 mM EDTA, 1 mM DTT, 1 mM NaF, Triton X-100, glycerol, 2 h binding (temperature not stated for this step), protein in a lysate after overexpression, protein details: HA, label: biotin
[1] = IFN-g + osmotic shock, SUMO-1 co-expressed

GGATCCCAACAGCTTGATTTCCCCGAAATGACGGCA (double strand) [Irf-1 GAS oligo]
binding result (STAT1 E705Q-HA): binds | binding result (STAT1 WT-HA; [1]): binds | binding result (STAT1 WT-HA; SUMO-1 overexpression vs none): binds more weakly

GGATCCTACTTTCAGTTTCATATTACTCTAAAT (double strand) [Gbp-1 GAS oligo]
binding result (STAT1 E705Q-HA): binds | binding result (STAT1 WT-HA; [1]): binds

For at least one entry, the source does not settle the construct or the ends of the probe. At least one result comes from cells or an extract, where the contact may be indirect. For some assays here: The comparison behind a weaker result is the experiment's own reference, which may not be listed here.
